Experimental data taken from patent publication US4873253A, “Phenylalanine derivative and proteinase inhibitor” (Okamoto; Shosuke, priority 1987, dated 1989).
The name of at least one read-out is uncertain.

Experiments:
[1] = biological target: T1, bovine thrombin (Bos taurus, UniProt P00735); experiment: Antithrombin activity: inhibition of fibrin formation (fibrinogen); type: biochemical; conditions: Table 4, comparative; fibrinogen coagulation; read-out: Thrombin Fibrinogen I50
T1 construct: a 0.2 unit/ml bovine thrombin solution
Method: (i) Determination of inhibition activity against fibrin formation
An inhibitor sample is dissolved in a 0.18 M borate-physiological salt buffer solution (pH= 7.4) to make the total volume to 500 μl. […] Thus, a coagulation time is determined. The inhibitor concentration I50 (μmol), at which the coagulation time obtained in the absence of the inhibitor is extended twice, is determined.

[2] = biological target: T1, bovine thrombin; experiment: Antithrombin activity: inhibition of S-2238 decomposition; type: biochemical; conditions: Table 4, comparative; substrate S-2238; read-out: Thrombin S-2238 I50
Method: An inhibitor sample is dissolved in a 0.05 M Tris-hydrochloric acid buffer solution (pH=8.3) to make a total volume of 400 μl. […] Thus, the concentration I50 (μmol) of the inhibitor sample at which the absorbance is one half (i.e., 1/2) of that obtained in the absence of the inhibitor sample, is determined.

## N=C(N)c1ccc2cc(OC(=O)c3ccc(N=C(N)N)cc3)ccc2c1 [FUT-175, reference compound]
[1]
  IC50: 59 µM
[2]
  IC50: 5.9 µM
